Measurements: PMC4026536
These are yes or no findings as the source states them, for the method shown. In cells and extracts the contact can be indirect. Some entries that bind do so weakly or less than the wild type. For some assays here: Tags and fused reporters may be left off the sequences shown.

T1: FLAG-tagged PKD2 (protein kinase D2) (human) (UniProt Q9BZL6)
T1 sequence: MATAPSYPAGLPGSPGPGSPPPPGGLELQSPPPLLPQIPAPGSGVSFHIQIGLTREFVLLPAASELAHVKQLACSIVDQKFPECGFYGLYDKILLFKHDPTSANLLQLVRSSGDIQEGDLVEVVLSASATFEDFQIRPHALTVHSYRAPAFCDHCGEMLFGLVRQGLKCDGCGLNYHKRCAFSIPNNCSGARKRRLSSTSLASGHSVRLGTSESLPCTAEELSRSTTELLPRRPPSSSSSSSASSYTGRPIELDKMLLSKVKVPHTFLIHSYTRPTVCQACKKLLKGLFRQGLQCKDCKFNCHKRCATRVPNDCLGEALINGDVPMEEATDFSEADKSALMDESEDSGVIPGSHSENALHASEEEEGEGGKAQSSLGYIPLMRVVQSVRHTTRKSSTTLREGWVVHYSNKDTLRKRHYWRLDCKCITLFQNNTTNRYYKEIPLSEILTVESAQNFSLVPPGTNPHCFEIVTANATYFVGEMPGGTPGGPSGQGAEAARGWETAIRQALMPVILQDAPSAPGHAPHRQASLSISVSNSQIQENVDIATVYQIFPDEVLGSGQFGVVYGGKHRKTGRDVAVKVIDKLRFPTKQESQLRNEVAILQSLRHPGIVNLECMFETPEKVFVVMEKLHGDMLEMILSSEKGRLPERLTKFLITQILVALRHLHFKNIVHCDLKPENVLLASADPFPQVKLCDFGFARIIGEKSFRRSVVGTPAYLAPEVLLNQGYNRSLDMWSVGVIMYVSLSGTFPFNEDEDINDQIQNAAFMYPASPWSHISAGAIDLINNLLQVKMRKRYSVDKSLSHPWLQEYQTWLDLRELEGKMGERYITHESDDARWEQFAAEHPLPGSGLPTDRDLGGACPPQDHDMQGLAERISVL

T2: endogenous PKD2 (protein kinase D2) (human (endogenous in HeLa and MDA-MB-468)) (UniProt Q9BZL6)
T2 sequence: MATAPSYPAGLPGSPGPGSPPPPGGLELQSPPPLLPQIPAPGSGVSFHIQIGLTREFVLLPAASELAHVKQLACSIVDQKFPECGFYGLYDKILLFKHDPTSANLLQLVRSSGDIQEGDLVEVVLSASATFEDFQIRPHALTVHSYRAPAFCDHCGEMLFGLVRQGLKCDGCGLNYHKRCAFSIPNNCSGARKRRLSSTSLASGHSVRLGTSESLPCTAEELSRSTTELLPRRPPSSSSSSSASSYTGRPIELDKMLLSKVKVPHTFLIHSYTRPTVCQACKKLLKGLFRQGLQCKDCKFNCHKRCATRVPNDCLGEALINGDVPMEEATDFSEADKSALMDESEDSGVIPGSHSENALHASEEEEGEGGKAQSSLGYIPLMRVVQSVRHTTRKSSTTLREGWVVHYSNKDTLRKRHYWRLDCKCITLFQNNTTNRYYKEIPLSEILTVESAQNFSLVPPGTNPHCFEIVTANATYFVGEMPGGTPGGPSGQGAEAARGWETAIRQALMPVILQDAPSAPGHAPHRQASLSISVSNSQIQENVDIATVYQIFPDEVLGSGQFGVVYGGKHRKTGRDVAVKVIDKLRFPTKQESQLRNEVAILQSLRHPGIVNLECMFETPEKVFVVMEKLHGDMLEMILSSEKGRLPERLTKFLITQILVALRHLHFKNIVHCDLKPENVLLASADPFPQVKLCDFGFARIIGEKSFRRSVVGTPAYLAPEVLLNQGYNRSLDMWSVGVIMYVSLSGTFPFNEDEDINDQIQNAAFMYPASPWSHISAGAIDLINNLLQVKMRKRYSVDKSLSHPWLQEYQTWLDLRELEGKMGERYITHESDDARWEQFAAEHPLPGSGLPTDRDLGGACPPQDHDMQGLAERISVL


Key:
[1] = biological target: T1, FLAG-tagged PKD2 (protein kinase D2) (human); test: co-IP; HeLa cells co-transfected with FLAG-PKD2, GST-PKD3 and, in Fig. 4A, GST-RhoA.CA; lysis in 50 mM Tris-HCl pH 7.4, 1% Triton X-100, 150 mM NaCl, 5 mM EDTA; anti-FLAG immunoprecipitation of PKD2, protein G-Sepharose, blot with anti-GST
[2] = biological target: T2, endogenous PKD2 (protein kinase D2) (human (endogenous in HeLa and MDA-MB-468)); test: co-IP; endogenous proteins from HeLa or MDA-MB-468 lysates under normal growth conditions; immunoprecipitation with subtype-specific anti-PKD2 or anti-PKD3 antibody, blot for the other isoform

binding [1] | binding [2] | Binder
binds |  | GST-tagged PKD3 (protein kinase D3) (enzyme, UniProt O94806 1-890) MSANNSPPSAQKSVLPTAIPAVLPAASPCSSPKTGLSARLSNGSFSAPSLTNSRGSVHTVSFLLQIGLTRESVTIEAQELSLSAVKDLVCSIVYQKFPECGFFGMYDKILLFRHDMNSENILQLITSADEIHEGDLVEVVLSALATVEDFQIRPHTLYVHSYKAPTFCDYCGEMLWGLVRQGLKCEGCGLNYHKRCAFKIPNNCSGVRKRRLSNVSLPGPGLSVPRPLQPEYVALPSEESHVHQEPSKRIPSWSGRPIWMEKMVMCRVKVPHTFAVHSYTRPTICQYCKRLLKGLFRQGMQCKDCKFNCHKRCASKVPRDCLGEVTFNGEPSSLGTDTDIPMDIDNNDINSDSSRGLDDTEEPSPPEDKMFFLDPSDLDVERDEEAVKTISPSTSNNIPLMRVVQSIKHTKRKSSTMVKEGWMVHYTSRDNLRKRHYWRLDSKCLTLFQNESGSKYYKEIPLSEILRISSPRDFTNISQGSNPHCFEIITDTMVYFVGENNGDSSHNPVLAATGVGLDVAQSWEKAIRQALMPVTPQASVCTSPGQGKDHKDLSTSISVSNCQIQENVDISTVYQIFADEVLGSGQFGIVYGGKHRKTGRDVAIKVIDKMRFPTKQESQLRNEVAILQNLHHPGIVNLECMFETPERVFVVMEKLHGDMLEMILSSEKSRLPERITKFMVTQILVALRNLHFKNIVHCDLKPENVLLASAEPFPQVKLCDFGFARIIGEKSFRRSVVGTPAYLAPEVLRSKGYNRSLDMWSVGVIIYVSLSGTFPFNEDEDINDQIQNAAFMYPPNPWREISGEAIDLINNLLQVKMRKRYSVDKSLSHPWLQDYQTWLDLREFETRIGERYITHESDDARWEIHAYTHNLVYPKHFIMAPNPDDMEEDP
 | binds | endogenous PKD3 (protein kinase D3) (enzyme, UniProt O94806 1-890) MSANNSPPSAQKSVLPTAIPAVLPAASPCSSPKTGLSARLSNGSFSAPSLTNSRGSVHTVSFLLQIGLTRESVTIEAQELSLSAVKDLVCSIVYQKFPECGFFGMYDKILLFRHDMNSENILQLITSADEIHEGDLVEVVLSALATVEDFQIRPHTLYVHSYKAPTFCDYCGEMLWGLVRQGLKCEGCGLNYHKRCAFKIPNNCSGVRKRRLSNVSLPGPGLSVPRPLQPEYVALPSEESHVHQEPSKRIPSWSGRPIWMEKMVMCRVKVPHTFAVHSYTRPTICQYCKRLLKGLFRQGMQCKDCKFNCHKRCASKVPRDCLGEVTFNGEPSSLGTDTDIPMDIDNNDINSDSSRGLDDTEEPSPPEDKMFFLDPSDLDVERDEEAVKTISPSTSNNIPLMRVVQSIKHTKRKSSTMVKEGWMVHYTSRDNLRKRHYWRLDSKCLTLFQNESGSKYYKEIPLSEILRISSPRDFTNISQGSNPHCFEIITDTMVYFVGENNGDSSHNPVLAATGVGLDVAQSWEKAIRQALMPVTPQASVCTSPGQGKDHKDLSTSISVSNCQIQENVDISTVYQIFADEVLGSGQFGIVYGGKHRKTGRDVAIKVIDKMRFPTKQESQLRNEVAILQNLHHPGIVNLECMFETPERVFVVMEKLHGDMLEMILSSEKSRLPERITKFMVTQILVALRNLHFKNIVHCDLKPENVLLASAEPFPQVKLCDFGFARIIGEKSFRRSVVGTPAYLAPEVLRSKGYNRSLDMWSVGVIIYVSLSGTFPFNEDEDINDQIQNAAFMYPPNPWREISGEAIDLINNLLQVKMRKRYSVDKSLSHPWLQDYQTWLDLREFETRIGERYITHESDDARWEIHAYTHNLVYPKHFIMAPNPDDMEEDP
